# Patent US6518314B1, “Pharmaceutical agents that impede the initiation and progression of primary and secondary DMS disruptions” (Nymox Corporation, priority 1997, dated 2003)
# System: human DMS
# Experiment: In vivo assay: intracerebral injection of human DMS plus compound into rats, histology of DMS disruption site
# Settings: initial mean volume of tissue occupied by the DMS; rats injected with about 100,000 human DMS and compound at 10^−5M, total volume about 100 μl
row,SMILES,Mean Volume DMS
1,"Cc1ccccc1C(OCCOC(c1ccccc1)c1ccccc1C)c1ccccc1 (stereo not drawn) [Compound 6, 1,2-Bis(2-methylphenylphenylmethoxy)ethane]",907 μ^3
2,C[C@@H](CO)NC(=O)[C@@H]1C=C2c3cccc4[nH]cc(c34)C[C@H]2N(C)C1 [Ergonovine],525 μ^3
3,Clc1ccc2c(c1)C(N1CCNCC1)=Nc1ccccc1O2 [Amoxepine],907 μ^3
4,CC(COc1ccc(/C(=C/c2ccccc2)c2ccccc2)cc1)N1CCN(C(c2ccccc2)c2ccccc2)CC1 (stereo not drawn) [Compound 12],525 μ^3
5,Cn1cnc2c1c(=O)n(CCOC(c1ccccc1)c1ccccc1)c(=O)n2C [Compound 13],1440 μ^3
6,CN1C(=O)CN=C(c2ccccc2)c2cc(Cl)ccc21 [Diazepam],383 μ^3
7,"Clc1ccc(C(OCCOC(c2ccccc2)c2ccc(Cl)cc2)c2ccccc2)cc1 (stereo not drawn) [Compound 4, 1,2-Bis(4chlorophenylphenylmethoxy)ethane]",525 μ^3
8,COC(=O)C1=C(C)N(CCOC(c2ccccc2)c2ccccc2)C(C)=C(C(=O)OC)C1c1ccccc1 [Compound 11],907 μ^3
9,CN1C[C@H](C(=O)N[C@]2(C)O[C@@]3(O)[C@@H]4CCCN4C(=O)[C@H](Cc4ccccc4)N3C2=O)C=C2c3cccc4[nH]cc(c34)C[C@H]21 [Ergotamine],525 μ^3
10,CC[C@@H]1C(=O)OC[C@@H]1Cc1cncn1C [Pilocarpine],1440 μ^3
11,Cn1cnc2c1c(=O)n(CCOC(c1ccccc1)c1ccc(Cl)cc1)c(=O)n2C (stereo not drawn) [Compound 14],1440 μ^3
12,CCCN1C[C@H](CSC)C[C@@H]2c3cccc4[nH]cc(c34)C[C@H]21 [Pergolide],907 μ^3
13,COC(=O)C(c1ccccc1)C1CCCCN1 (stereo not drawn) [Methylphenidate],525 μ^3
14,CN(C)CCCN1c2ccccc2CCc2ccccc21 [Imipramine],907 μ^3
15,"FC(F)(F)c1ccc(C(OCCOC(c2ccccc2)c2ccc(C(F)(F)F)cc2)c2ccccc2)cc1 (stereo not drawn) [Compound 5, 1,2-Bis(4-trifluoromethylphenylphenylmethoxy)ethane]",907 μ^3
16,"CC(Cc1ccccc1)N1CCN(C(c2ccccc2)c2ccccc2)CC1 (racemic) [Compound 1, (±)-1-(1-Phenylisopropyl)-4-(diphenylmethyl)piperazine]",1153 μ^3
17,Nc1c2c(nc3ccccc13)CCCC2 [Tacrine],525 μ^3
18,CCOC(=O)C1(c2ccccc2)CCN(C)CC1 [Meperidine],1153 μ^3
19,"CN(CCC=C1c2ccccc2CCc2ccccc21)CCOC(c1ccccc1)c1ccc(Cl)cc1 (stereo not drawn) [Compound 10, 3-(10,11-Dihydro-5H-dibenzo[a,d]cyclohepten-5-ylidene-N-methyl-N-[2-(4-chlorophenylphenylmethoxy)ethyl)]-1-propaneamine]",383 μ^3
20,"CN(CCC=C1c2ccccc2CCc2ccccc21)CCOC(c1ccccc1)c1ccccc1 [Compound 9, 3-(10,11-Dihydro-5H-dibenzo[a,d]cyclohepten-5-ylidene-N-methyl-N-[2-(diphenylmethoxy)ethyl)]-1-propaneamine]",383 μ^3
21,C#CCN(C)[C@H](C)Cc1ccccc1 [Selegiline],907 μ^3
22,CN(C)C(=O)Oc1cccc([N+](C)(C)C)c1 [Neostigmine],1440 μ^3
23,O=C1Nc2ccc(Cl)cc2C(c2ccccc2Cl)=NC1O (stereo not drawn) [Lorazepam],383 μ^3
24,"c1ccc(C(OCCOC(c2ccccc2)c2ccccc2)c2ccccc2)cc1 [Compound 2, 1,2-Bis(diphenylmethoxy)ethane]",525 μ^3
